Experimental data: PubChem BioAssay AID1259308 (NCATS, 2017)
Aim: 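Knock-downs that increase output of a recombinant reporter protein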 (primary screen). System: human HEK293 embryonic kidney cells stably expressing firefly luciferase (HEK-CMV-Luc2-Hygro). Knock-down reagent: single siRNA against human genes, 0.8 pmol siRNA per well. Time to read-out: 72 h. Detection: 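Reporter luminescence and viable-cell signal on separate replicate plates, given as percent of non-targeting control and median/MAD z-scores, plus per-cell luciferase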. Reading the numbers: total luciferase, z-score: higher = more reporter protein produced. Call rule: 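An siRNA counts as active if its total luciferase robust z-score exceeds 3; genes with two or more such siRNAs out of three were retested with fresh siRNAs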. Calls: active = raised luciferase; inactive = no rise.
In all, the deposit lists about 59,000 reagents; this is a random part of them. About 1,510 of them (2.6%) were called active. 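Calls use total luciferase alone and ignore viability, so some active siRNAs may act by altering cell number.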 Unmarked entries are inactive. The numbers tell different reagents against one gene apart. Not all columns of the deposit are shown. No sequences are given here.

With knock-down of SPART (spartin) #1, the screen gave total luciferase, z-score -0.174.
With knock-down of SPART (spartin) #2 the results were total luciferase, z-score -0.297.
With knock-down of SPART (spartin) #3 the results were total luciferase, z-score 0.627.
With knock-down of SPINK9 (serine peptidase inhibitor Kazal type 9) #1 the results were total luciferase, z-score 0.482.
For SPINK9 (serine peptidase inhibitor Kazal type 9) #2 the deposit lists total luciferase, z-score 0.388.
Depletion of SPINK9 (serine peptidase inhibitor Kazal type 9) #3 gave: total luciferase, z-score -0.115.

Looked up above:
Value of SPART (spartin) #1 under “total luciferase, z-score”: -0.174
For “total luciferase, z-score”, SPINK9 (serine peptidase inhibitor Kazal type 9) #1 shows 0.482

The listing continues:
After knock-down of SLC12A6 #1, the record shows total luciferase, z-score 0.852.
Against SLC12A6 #2, the values are total luciferase, z-score -1.28.
After knock-down of SLC12A6 #3, the screen gave total luciferase, z-score 1.76.
For TICAM1 (TIR domain containing adaptor molecule 1) #1 the deposit lists total luciferase, z-score -0.794.
TICAM1 (TIR domain containing adaptor molecule 1) #2 gave total luciferase, z-score -2.04.
With knock-down of TICAM1 (TIR domain containing adaptor molecule 1) #3, the screen gave total luciferase, z-score 3.06 (active).
